Results from US20240376195A1.
Positions count from the first letter of the chain named. No constants are given. Whether binding was seen depends on the method and setting. Some results given as binding are weak or reduced against the parent protein; the word gives no strength. Blank lines part the entries; values can stand above or below the binder they belong to.

Chains of the proteins cited; added tags and fusions are not shown. Residues count along the entry.
UniProt O14931, residues 19-135: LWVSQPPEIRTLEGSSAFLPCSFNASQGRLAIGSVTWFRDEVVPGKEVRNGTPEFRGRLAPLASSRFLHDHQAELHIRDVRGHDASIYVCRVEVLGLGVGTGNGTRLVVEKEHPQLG

How the values were obtained:
[1] = target: NKp30 (form in the assay not stated) (UniProt O14931); assay: flow cytometry, y axis NKp30 (MFI); cells not named in the legend or on the sheet
[2] = target: his-tagged human NKp30 (human) (UniProt O14931); assay: SPR, antibody captured on anti-human Fc surface

- binding [1]: binds
B1: mu183 (antibody, V domains shown)
VH: QVQLQQPGSVLVRPGASVKLSCKASGYTFTSSWMHWAKQRPGQGLEWIGEIHPNRDNTNYNEKFKGKATLTVDTSSSTAYVDLSSLTSEDSAVYYCARSYYDYGGAYFDSWGQGTTLTVSS
VL: QIVLTQSHKFMSTSVGDRVSITCKASQDVSTAVAWYQQKPGQSPKLLIYAASYRHIGVPDRFTGSGSGTDFTFTISSVQAEDLAVYYCQQHYSNPFTFGSGTKLEIK

- binding [2]: binds
B2: BGA1831 (antibody, human IgG1, kappa, V domains shown)
VH: QVQLVQSGAVVVKPGASVKVSCKASGYTFTSSWMHWARQAPGQGLEWIGEIHPNRDNTNYNEKFKGRATLTVDTSTSTAYMELSSLRSEDTAVYYCARSYYDYGGAYFDSWGQGTLVTVSS
VL: QIVLTQSPSSLSASVGDRVTITCKASQDVSTAVAWYQQKPGKSPKLLIYAASYRHIGVPSRFSGSGSGTDFTFTISSLQPEDFATYYCQQHYSNPFTFGGGTKVEIKR

- binding [2]: binds
B3: BGA1832 (antibody, human IgG1, kappa, V domains shown)
VH: B2 VH with V10E, V12K, W33Y, A37V, I48M, A68V, L70M, A79V, S110A
VL: B2 VL with Q1D, V3Q, S43A, F73L
